Assay results from paper PMC12828403.
Results are given in words; binding and its absence hold for the method and conditions named. Some results given as binding are weak or reduced against the parent protein; the word gives no strength.

Amino acid sequences for entries named in this document (tags omitted).
UniProt Q869W9: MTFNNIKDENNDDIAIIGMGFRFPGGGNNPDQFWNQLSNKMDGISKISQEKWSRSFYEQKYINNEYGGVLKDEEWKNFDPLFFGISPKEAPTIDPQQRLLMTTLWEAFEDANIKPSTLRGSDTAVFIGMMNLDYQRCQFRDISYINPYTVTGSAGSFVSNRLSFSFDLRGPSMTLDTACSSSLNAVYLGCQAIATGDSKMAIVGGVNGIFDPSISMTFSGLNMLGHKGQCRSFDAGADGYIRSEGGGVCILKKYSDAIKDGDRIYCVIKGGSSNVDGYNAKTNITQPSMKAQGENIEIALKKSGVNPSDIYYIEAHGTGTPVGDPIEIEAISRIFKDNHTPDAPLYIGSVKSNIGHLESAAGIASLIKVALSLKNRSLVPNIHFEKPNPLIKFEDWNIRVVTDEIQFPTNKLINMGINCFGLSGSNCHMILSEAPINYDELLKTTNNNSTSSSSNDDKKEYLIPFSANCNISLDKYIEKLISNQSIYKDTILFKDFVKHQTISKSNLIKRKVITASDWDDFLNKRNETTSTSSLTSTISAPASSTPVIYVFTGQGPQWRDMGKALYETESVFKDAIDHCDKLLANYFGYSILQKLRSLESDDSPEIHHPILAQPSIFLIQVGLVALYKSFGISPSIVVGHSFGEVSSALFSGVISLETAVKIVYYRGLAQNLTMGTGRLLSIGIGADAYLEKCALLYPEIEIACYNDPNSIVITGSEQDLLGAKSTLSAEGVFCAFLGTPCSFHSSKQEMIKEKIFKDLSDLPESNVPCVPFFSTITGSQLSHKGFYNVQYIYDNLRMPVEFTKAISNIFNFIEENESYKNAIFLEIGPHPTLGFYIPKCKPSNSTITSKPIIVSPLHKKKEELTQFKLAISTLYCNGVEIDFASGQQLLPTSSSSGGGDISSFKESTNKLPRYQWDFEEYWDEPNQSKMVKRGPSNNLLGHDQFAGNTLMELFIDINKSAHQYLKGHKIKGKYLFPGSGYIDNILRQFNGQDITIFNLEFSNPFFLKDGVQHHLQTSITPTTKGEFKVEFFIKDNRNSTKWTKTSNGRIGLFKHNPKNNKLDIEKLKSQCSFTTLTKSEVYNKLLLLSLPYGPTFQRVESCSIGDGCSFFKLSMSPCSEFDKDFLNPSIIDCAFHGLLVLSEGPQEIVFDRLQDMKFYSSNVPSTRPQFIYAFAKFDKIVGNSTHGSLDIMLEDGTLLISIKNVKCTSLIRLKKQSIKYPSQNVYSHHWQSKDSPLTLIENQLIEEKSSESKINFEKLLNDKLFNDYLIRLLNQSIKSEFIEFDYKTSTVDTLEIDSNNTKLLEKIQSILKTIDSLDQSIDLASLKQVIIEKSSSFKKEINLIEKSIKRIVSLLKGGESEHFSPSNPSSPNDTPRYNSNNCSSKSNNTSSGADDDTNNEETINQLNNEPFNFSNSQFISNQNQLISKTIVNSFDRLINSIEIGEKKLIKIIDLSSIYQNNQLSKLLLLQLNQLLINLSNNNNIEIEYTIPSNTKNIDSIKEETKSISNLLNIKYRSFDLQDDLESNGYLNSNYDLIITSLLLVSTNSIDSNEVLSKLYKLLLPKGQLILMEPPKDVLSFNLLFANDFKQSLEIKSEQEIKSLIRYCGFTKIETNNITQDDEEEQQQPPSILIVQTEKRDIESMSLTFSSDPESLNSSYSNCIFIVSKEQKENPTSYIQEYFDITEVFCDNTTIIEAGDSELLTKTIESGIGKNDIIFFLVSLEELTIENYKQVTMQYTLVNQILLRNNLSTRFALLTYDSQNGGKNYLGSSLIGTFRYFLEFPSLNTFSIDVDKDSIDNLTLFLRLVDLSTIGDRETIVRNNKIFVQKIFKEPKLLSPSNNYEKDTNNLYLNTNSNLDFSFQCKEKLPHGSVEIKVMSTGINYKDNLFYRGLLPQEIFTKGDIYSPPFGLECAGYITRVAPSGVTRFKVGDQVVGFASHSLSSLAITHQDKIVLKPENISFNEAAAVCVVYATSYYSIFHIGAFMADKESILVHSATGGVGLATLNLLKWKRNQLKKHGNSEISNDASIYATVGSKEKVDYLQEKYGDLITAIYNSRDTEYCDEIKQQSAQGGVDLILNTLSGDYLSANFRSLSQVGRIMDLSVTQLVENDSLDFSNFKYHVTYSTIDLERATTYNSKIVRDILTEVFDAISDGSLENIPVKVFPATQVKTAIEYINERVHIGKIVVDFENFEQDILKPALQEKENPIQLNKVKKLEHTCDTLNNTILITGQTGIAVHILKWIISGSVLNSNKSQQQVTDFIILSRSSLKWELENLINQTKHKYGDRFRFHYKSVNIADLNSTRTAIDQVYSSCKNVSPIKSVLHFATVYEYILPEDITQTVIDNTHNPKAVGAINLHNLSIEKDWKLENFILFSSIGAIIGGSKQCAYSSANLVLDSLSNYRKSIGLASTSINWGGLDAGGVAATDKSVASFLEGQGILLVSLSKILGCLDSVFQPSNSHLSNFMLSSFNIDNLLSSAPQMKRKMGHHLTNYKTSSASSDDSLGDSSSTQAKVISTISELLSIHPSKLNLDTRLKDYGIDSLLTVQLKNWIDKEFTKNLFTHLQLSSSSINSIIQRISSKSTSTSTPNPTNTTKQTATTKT

Columns and labels:
[1] = molecular target: polyketide synthase 16 (Pks16) (Dictyostelium discoideum (endogenous in AX2-214 cells)) (UniProt Q869W9); assay: cryo-EM structure; shotgun EM of endogenous assemblies in a heterogeneous pool of SEC and mixed-bed IEX fractions of D. discoideum lysate; 50 mM Hepes pH 7.4, 100 mM NaCl, 3 mM MgSO4, 0.1 mM EGTA, 1 mM DTT, 2% glycerol; 200 kV Glacios; proteins identified by MS of the same sample; AlphaFold 3 models fitted into the maps
[2] = molecular target: dihydrolipoyllysine-residue succinyltransferase (Odo2) of the mitochondrial 2-oxoglutarate dehydrogenase complex (Dictyostelium discoideum (endogenous in AX2-214 cells)) (UniProt Q869Y7); assay: as above

In the case of “polyketide synthase 16 (Pks16) (from UniProt Q869W9 1-2603) (enzyme)”, the binding [1] is reported as “binds”.

B1: dihydrolipoyllysine-residue succinyltransferase (Odo2) of the mitochondrial 2-oxoglutarate dehydrogenase complex (enzyme, UniProt Q869Y7 48-439)
chain: FTSLFNNNNVNNTNIKYQRFYSSANDVVIKVPSMGDSISEGTIVAWTKNVGDSVRVDEVVCSIETDKVTIDINAPVSGTIVELFAKEGENVTVGNDLYKIAKGEVAAAPKVEAPKAAEAPKAAAPTPAPKAAETPKAAPAPKSEAPTPAPKSTTTTTSTGPSETRVKMTRIRQRTAQRLKDSQNTAAMLTTFNELDMSALMNMRKTYKDEFEKKHGVKFGFMSAFVKASTIALKEQPIVNASVEENDIVYHNNVNINVAVSAPRGLVVPVIRNCENLSFADIEKEIGRLSGLARNDALAIEDSIGGTFTISNGGVFGSMFGTPIINPPQSAILGMHAIKDRPYVVNGQVVVRPIMYLALTYDHRIIDGREAVTFLKKIKDVLENPERILLEL
With B1 the binding [2] was “binds”.
